Values of other authors as cited in article PMC2843925 (ACS chemical neuroscience, 2010).

Target: DAT
Settings: known DAT ligands; ref Ukairo et al. ([12]); cited from earlier work

Structure (SMILES): CN1[C@@H]2CC[C@@H]1CC(OC(c1ccccc1)c1ccccc1)C2 (stereo partly drawn) [Benztropine, (1R,5R)-3-benzhydryloxy-8-methyl-8-azabicyclo[3.2.1]octane]
- E pKi (experimental pKi): 6.90
